In data set [1] the target is HuR (ELAVL1 human recombinant protein) (Homo sapiens) (UniProt Q15717). Briefly: EMSA. As to conditions: HuR 0-150 µM as printed (25-200 µM in Methods); 20 mM HEPES pH 7.6, 3 mM MgCl2, 40 mM KCl, 5% glycerol, 2 mM DTT, 20 µg yeast tRNA, 20 U RNasin, 20 µL, on ice 10 min (plus 15 min with antibody); 5% native PAGE; commercial protein.
Data set [2] concerns the target HuR in whole-cell extract (Homo sapiens) (UniProt Q15717). Put plainly: EMSA supershift. As to conditions: anti-HuR 3A2, 10 µg whole-cell extract; 20 mM HEPES pH 7.6, 3 mM MgCl2, 40 mM KCl, 5% glycerol, 2 mM DTT, 20 µg yeast tRNA, 20 U RNasin, 20 µL, on ice 10 min (plus 15 min with antibody); 5% native PAGE; protein in an extract.

Sequences of proteins named here, by UniProt entry; tags and fusion partners are left off.
UniProt Q15717, whole entry: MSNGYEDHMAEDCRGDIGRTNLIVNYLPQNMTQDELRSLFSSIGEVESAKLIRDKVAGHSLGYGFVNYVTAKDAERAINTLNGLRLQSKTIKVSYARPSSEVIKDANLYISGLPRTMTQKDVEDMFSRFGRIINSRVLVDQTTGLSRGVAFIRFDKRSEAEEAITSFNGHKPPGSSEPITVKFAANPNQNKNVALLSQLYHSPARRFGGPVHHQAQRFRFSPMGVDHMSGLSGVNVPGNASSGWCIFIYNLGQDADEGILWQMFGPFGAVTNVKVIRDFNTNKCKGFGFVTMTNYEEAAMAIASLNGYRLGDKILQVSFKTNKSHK

For at least one entry, the source does not settle the construct or the ends of the probe. For part of these data: The comparison behind a weaker result is the experiment's own reference, which may not be listed here. For part of these data: Where cells or extracts were used, other partners may take part. For part of these data: Whether high values mean tight binding is not given here for every scale.

For the sequence “CUUUCCCCAGACACCCUGUUUUAUUU [rs13900C oligoribonucleotide]”, in data set [1], the binding result is reported as “binds more weakly”. In data set [2], the binding signal (fold (reference)) stood at 1. Regarding “CUUUCCCCAGACACCUUGUUUUAUUU [rs13900T oligoribonucleotide]”, the binding signal (fold vs rs13900C) in data set [2] was 7.

The record behind these values is article PMC12803514.
